Values from PubChem BioAssay AID743454 (Peter MacCallum Cancer Centre, 2014)

Aim: 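Genes whose loss kills vorinostat-resistant colon cancer cells under vorinostat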 (primary screen)
Cells: human HCT116-VR colon cancer cells, selected for vorinostat resistance
Knock-down reagent: siRNA pool against human genes, 40 nM siRNA pool
Time to read-out: vorinostat for 24 h, read-out about 72 h after transfection
Challenge: vorinostat at 2.5 µM final
Read-out: 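Two measures, CellTiter-Fluor viability and luminescent caspase 3/7 activity, each as fold change against same-plate mock wells, mean of duplicates, then screen-wide robust z-score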
Direction: viability robust z-score: higher = more viable cells than screen typical; caspase robust z-score: higher = more caspase 3/7 activity than screen typical
Call rule: 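a knock-down is a hit when classed RV1 or RV2 for lowered viability, or CA1 or CA2 for caspase activation; those lethal without drug were dropped; hits were retested singly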
Here is an unselected part of about 18,000 reagents. Of all reagents, 450 (2.5%) got an active call. 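Single biological run; no consistent viability z cut-off exists, so the class columns, not z-scores, define the calls.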 Unmarked entries are inactive.

Target gene	PubChem SID	viability hit class	caspase hit class	viability robust z-score	caspase robust z-score
SLC2A4RG (SLC2A4 regulator)	SID135623635	no change	no change	-0.54	2.53
RRAGA (Ras related GTP binding A)	SID152154838	no change	no change	-1.8	0.44
PCDHGA1 (protocadherin gamma subfamily A, 1)	SID134317508	no change	no change	-0.1	1.64
GNMT (glycine N-methyltransferase)	SID152149399	no change	no change	1.66	0.05
ZNF256 (zinc finger protein 256)	SID134324935	no change	no change	0.27	-0.88
MAEA (macrophage erythroblast attacher, E3 ubiquitin ligase)	SID152155075	no change	no change	0.91	-0.2
STAC2 (SH3 and cysteine rich domain 2)	SID152149619	no change	no change	0.66	-0.68
BCORL1 (BCL6 corepressor like 1)	SID152150548	no change	no change	-0.25	2.37
S100A6 (S100 calcium binding protein A6)	SID152152948	no change	no change	-0.9	2.73
LHFPL6 (LHFPL tetraspan subfamily member 6)	SID152154705	no change	no change	-0.54	1.66
TTF1 (transcription termination factor 1)	SID134316654	no change	no change	0.12	-0.05
APOBEC3B (apolipoprotein B mRNA editing enzyme catalytic subunit 3B)	SID135623311	no change	no change	1.28	1.39
NPTN (neuroplastin)	SID152154716	no change	no change	-0.03	-0.64
SIX5 (SIX homeobox 5)	SID135623433	no change	no change	0.71	1.54
NPPB (natriuretic peptide B)	SID152151380	no change	no change	0.38	-0.86
CYBB (cytochrome b-245 beta chain)	SID152150257	no change	no change	-1.73	0.39
LRRC61 (leucine rich repeat containing 61)	SID134318431	no change	no change	-0.78	-0.2
CCDC144BP (coiled-coil domain containing 144B, pseudogene)	SID135623650	no change	no change	-0.02	-1.08
REEP2 (receptor accessory protein 2)	SID134324805	no change	no change	-0.86	1.03
DNAJB12 (DnaJ heat shock protein family (Hsp40) member B12)	SID152148438	no change	no change	0.02	-1.23
PRKX (protein kinase cAMP-dependent X-linked catalytic subunit)	SID152149946	no change	no change	-0.32	-0.98
OR10A3 (olfactory receptor family 10 subfamily A member 3)	SID152147664	no change	no change	0.55	0.05
SLC23A3	SID135621375	no change	no change	0.27	-1.14

Targets above whose target name starts with N or n:
Target gene	PubChem SID	viability hit class	caspase hit class	viability robust z-score	caspase robust z-score
NPTN (neuroplastin)	SID152154716	no change	no change	-0.03	-0.64
NPPB (natriuretic peptide B)	SID152151380	no change	no change	0.38	-0.86
